# Reference: PubChem BioAssay AID248 (DTP/NCI, 2004)
# The list is a part of this screen's results and no random one: it is rich in T/C values a quarter to a half above the control, in often repeated tests (any T/C) and in doses without a T/C. Other doses and runs of a compound stand elsewhere. T/C is the treated group as % of the vehicle group. Some entries give survivors of the animals treated and no T/C: the source holds a T/C of zero for them, seemingly a mark for toxic or unscored doses. Some survivor counts are full or nearly so, which does not show that the dose was tolerated: survival well below the control is almost never listed, so the zero probably covers shortened survival too. Counts of survivors are from the toxicity check (mostly the fifth day) where no day follows; animals may have died later. Schedule codes are those of the source, taken here to give the interval after Q, in days (D) or hours (H), and the number of doses after X. Where survival is the endpoint, this PubChem deposit counts one and a half times the control or more as active, and values a quarter to a half above the control carry no call in these data; other NCI protocols may use other cut-offs.
# System: L1210 leukemia ip in BDF1 mice, survival T/C
# Assay: NCI In Vivo Anticancer Drug Screen. Data for tumor model L1210 Leukemia (intraperitoneal) in B6D2F1 (BDF1) mice
# Conditions: T/C endpoint: mean survival time, higher T/C = longer survival
# [1] = dose: 400.0 mg/kg/injection, schedule: Q01DX009 (ip), vehicle: saline with Tween-80
# [2] = dose: 400.0 mg/kg/injection, schedule: Q04DX003 (ip), vehicle: Klucel (hydroxypropylcellulose) (HPC)
# [3] = dose: 400.0 mg/kg/injection, schedule: Q01DX009 (ip), vehicle: Klucel (hydroxypropylcellulose) (HPC)
# [4] = dose: 200.0 mg/kg/injection, schedule: Q04DX002 (ip), vehicle: saline with Tween-80
# [5] = dose: 400.0 mg/kg/injection, schedule: Q04DX002 (ip), vehicle: saline with Tween-80
# [6] = dose: 400.0 mg/kg/injection, schedule: Q04DX003 (ip), vehicle: saline
# [7] = dose: 200.0 mg/kg/injection, schedule: Q01DX001 (ip), vehicle: saline
# [8] = dose: 400.0 mg/kg/injection, schedule: Q01DX001 (ip), vehicle: saline
# [9] = dose: 100.0 mg/kg/injection, schedule: Q04DX002 (ip), vehicle: saline
smiles,measurement,setting,value
CC1(C)CN1P(=S)(N1CC1(C)C)N1CC1(C)C (centres undefined),T/C,"dose: 44.0 mg/kg/injection, schedule: Q01DX001 (ip), vehicle: carboxymethylcellulose (CMC)",131 % of control
same,T/C,"dose: 66.0 mg/kg/injection, schedule: Q01DX001 (ip), vehicle: carboxymethylcellulose (CMC)",141 % of control
same,T/C,"dose: 66.0 mg/kg/injection, schedule: Q01DX001 (ip), vehicle: other",127 % of control
same,T/C,"dose: 100.0 mg/kg/injection, schedule: Q01DX009 (ip), vehicle: saline",125 % of control
same,T/C,"dose: 150.0 mg/kg/injection, schedule: Q01DX001 (ip), vehicle: carboxymethylcellulose (CMC)",149 % of control
same,T/C,"dose: 400.0 mg/kg/injection, schedule: Q01DX001 (ip), vehicle: carboxymethylcellulose (CMC)",132 % of control
O=[N+]([O-])/C=C\C(Cl)(Cl)Cl,survivor count,"dose: 25.0 mg/kg/injection, schedule: Q01DX009 (ip), vehicle: saline with Tween-80",0 of 6
same,survivor count,"dose: 50.0 mg/kg/injection, schedule: Q01DX009 (ip), vehicle: saline with Tween-80",0 of 6
same,survivor count,"dose: 100.0 mg/kg/injection, schedule: Q01DX009 (ip), vehicle: saline with Tween-80",0 of 6
same,survivor count,"dose: 200.0 mg/kg/injection, schedule: Q01DX009 (ip), vehicle: saline with Tween-80",0 of 6
same,survivor count,[1],0 of 6
CCCCN=C=NCCC[N+](C)(C)C,survivor count,[2],0 of 6
S=C(Cc1ccccc1)N1CCCCC1,survivor count,[2],2 of 6
C=C(C)C1CC=C(C=O)CC1 (centres undefined),survivor count,[3],0 of 6
O=[N+]([O-])c1ccc(C[Se]c2ncnc3c(C4OC(CO)C(O)C4O)[nH]nc23)cc1 (centres undefined),survivor count,"dose: 100.0 mg/kg/injection, schedule: Q01DX005 (ip), vehicle: saline",0 of 6
same,survivor count,"dose: 200.0 mg/kg/injection, schedule: Q01DX005 (ip), vehicle: saline",0 of 6
[CH3][Pb]([CH3])([CH3])[O]C(=O)CCl,survivor count,"dose: 3.13 mg/kg/injection, schedule: Q01DX009 (ip), vehicle: saline with Tween-80",6 of 6
same,survivor count,"dose: 6.25 mg/kg/injection, schedule: Q01DX009 (ip), vehicle: saline with Tween-80",1 of 6
same,survivor count,"dose: 25.0 mg/kg/injection, schedule: Q04DX002 (ip), vehicle: saline with Tween-80",0 of 3
same,survivor count,"dose: 50.0 mg/kg/injection, schedule: Q04DX002 (ip), vehicle: saline with Tween-80",0 of 3
same,survivor count,"dose: 100.0 mg/kg/injection, schedule: Q04DX002 (ip), vehicle: saline with Tween-80",0 of 3
same,survivor count,[4],0 of 3
same,survivor count,[5],0 of 3
O=[N+]([O-])c1ccc(F)c(Cl)c1F,survivor count,"dose: 100.0 mg/kg/injection, schedule: Q04DX002 (ip), vehicle: Klucel (hydroxypropylcellulose) (HPC)",0 of 3
same,survivor count,"dose: 200.0 mg/kg/injection, schedule: Q04DX002 (ip), vehicle: Klucel (hydroxypropylcellulose) (HPC)",0 of 3
same,survivor count,"dose: 400.0 mg/kg/injection, schedule: Q04DX002 (ip), vehicle: Klucel (hydroxypropylcellulose) (HPC)",0 of 3
CCCN(CCC)N=Nc1c(C(=O)OC)n[nH]c1C,T/C,"dose: 265.0 mg/kg/injection, schedule: Q01DX009 (ip), vehicle: saline",131 % of control
same,survivor count,"dose: 600.0 mg/kg/injection, schedule: Q01DX009 (ip), vehicle: saline",3 of 6
O=C1Nc2nc(=O)nc3[nH]c(=O)nc(n23)N1,survivor count,"dose: 150.0 mg/kg/injection, schedule: Q01DX009 (ip), vehicle: saline",1 of 6
same,survivor count,"dose: 200.0 mg/kg/injection, schedule: Q04DX003 (ip), vehicle: saline",1 of 6
same,survivor count,"dose: 225.0 mg/kg/injection, schedule: Q01DX009 (ip), vehicle: saline",0 of 6
same,survivor count,"dose: 335.0 mg/kg/injection, schedule: Q01DX009 (ip), vehicle: saline",0 of 6
same,survivor count,[6],0 of 6
CCN(CC)CCNC(c1ccc(OC)cc1)C(Cl)(Cl)Cl (centres undefined),survivor count,"dose: 300.0 mg/kg/injection, schedule: Q01DX001 (ip), vehicle: saline",0 of 6
CCCCCCCCCCCCNC(=O)c1ccc[n+](C)c1,survivor count,"dose: 35.0 mg/kg/injection, schedule: Q01DX009 (ip), vehicle: saline",1 of 6
same,survivor count,"dose: 50.0 mg/kg/injection, schedule: Q01DX001 (ip), vehicle: saline",3 of 6
same,survivor count,"dose: 55.0 mg/kg/injection, schedule: Q01DX009 (ip), vehicle: saline",4 of 6
same,survivor count,"dose: 80.0 mg/kg/injection, schedule: Q01DX009 (ip), vehicle: saline",0 of 6
same,survivor count,"dose: 100.0 mg/kg/injection, schedule: Q01DX001 (ip), vehicle: saline",2 of 6
same,survivor count,[7],0 of 6
same,survivor count,[8],0 of 6
CCOC(=O)c1cc(N)c[nH]1,survivor count,[6],6 of 6
CCOc1ccc(C(=O)CCN2CCOCC2)cc1,survivor count,[8],0 of 4
CCc1cccc(CC)c1NC(=O)NS(=O)(=O)c1ccccc1,survivor count,[1],1 of 6
C[P+](Cc1ccc([N+](=O)[O-])cc1)(c1ccccc1)c1ccccc1,survivor count,"dose: 50.0 mg/kg/injection, schedule: Q01DX009 (ip), vehicle: Klucel (hydroxypropylcellulose) (HPC)",5 of 6
same,survivor count,"dose: 100.0 mg/kg/injection, schedule: Q04DX003 (ip), vehicle: Klucel (hydroxypropylcellulose) (HPC)",1 of 6
same,survivor count,"dose: 200.0 mg/kg/injection, schedule: Q04DX003 (ip), vehicle: Klucel (hydroxypropylcellulose) (HPC)",0 of 6
same,survivor count,[2],0 of 6
CCCc1ccc(OCC=C(C)C)cc1,survivor count,[4],3 of 3
C1COC(CNCC2CCCO2)C1 (centres undefined),survivor count,[8],1 of 4
O=NN1CCOCC1,survivor count,[9],3 of 3
same,survivor count,"dose: 200.0 mg/kg/injection, schedule: Q04DX002 (ip), vehicle: saline",3 of 3
same,survivor count,[8],1 of 4
same,survivor count,"dose: 400.0 mg/kg/injection, schedule: Q04DX002 (ip), vehicle: saline",2 of 3
O=S(=O)(Nc1c(Cl)c(Cl)c(Cl)c(Cl)c1NS(=O)(=O)c1ccccc1)c1ccccc1,survivor count,[3],6 of 6
CC1(C)CC(=NNC(N)=S)CC(C)(C)N1O,T/C,[9],129 % of control
same,survivor count,[4],0 of 4
O=S(=O)(O)C(Nc1ccccc1)c1ccccc1 (centres undefined),T/C,"dose: 800.0 mg/kg/injection, schedule: Q01DX015 (ip), vehicle: water",133 % of control
same,survivor count,"dose: 1200.0 mg/kg/injection, schedule: Q01DX015 (ip), vehicle: water",0 of 6
O=[N+]([O-])c1ccc(C2ON2C2CCCCC2)cc1 (centres undefined),survivor count,"dose: 200.0 mg/kg/injection, schedule: Q01DX001 (ip), vehicle: carboxymethylcellulose (CMC)",6 of 6
CCCCOC(=O)CCl,survivor count,[5],1 of 3
C#CCCCN1CCC2(CC1)C(=O)N(C(=O)N(C)C)CN2c1ccccc1,survivor count,"dose: 200.0 mg/kg/injection, schedule: Q04DX003 (ip), vehicle: saline with Tween-80",0 of 6
same,survivor count,"dose: 400.0 mg/kg/injection, schedule: Q04DX003 (ip), vehicle: saline with Tween-80",0 of 6
O=C1NC(=O)C(c2cccs2)(c2cccs2)N1,survivor count,"dose: 400.0 mg/kg/injection, schedule: Q04DX003 (ip), vehicle: water",1 of 6
CCN(CC)CCSSCCN(CC)CC.[Cl][Mn][Cl],survivor count,[7],3 of 6
same,survivor count,[8],0 of 6
CCCCCCCCCCCCCCCC(=O)N(CCCCN(C)C)CCCCN(C)C,survivor count,"dose: 8.0 mg/kg/injection, schedule: Q01DX009 (ip), vehicle: carboxymethylcellulose (CMC)",5 of 6
same,survivor count,"dose: 10.0 mg/kg/injection, schedule: Q01DX009 (ip), vehicle: carboxymethylcellulose (CMC)",3 of 6
same,survivor count,"dose: 12.0 mg/kg/injection, schedule: Q01DX009 (ip), vehicle: carboxymethylcellulose (CMC)",3 of 6
